Results are given in words; binding and its absence hold for the method and conditions named. Binding seen in cells or lysates may run through a third protein. Some results given as binding are weak or reduced against the parent protein; the word gives no strength. Where a sequence is shown, tags or fusion partners need not be part of it.
Molecular target: Myc-NPM1 (human) (UniProt P06748)
Assay: co-IP; Flag-ALDH9A1 and Myc-NPM1 forced expressed in A498 and CAKI-1 cells; Flag immunoprecipitation and Myc immunoprecipitation; western blot

The chains behind the UniProt entries cited, without tags or fusion partners.
UniProt P06748: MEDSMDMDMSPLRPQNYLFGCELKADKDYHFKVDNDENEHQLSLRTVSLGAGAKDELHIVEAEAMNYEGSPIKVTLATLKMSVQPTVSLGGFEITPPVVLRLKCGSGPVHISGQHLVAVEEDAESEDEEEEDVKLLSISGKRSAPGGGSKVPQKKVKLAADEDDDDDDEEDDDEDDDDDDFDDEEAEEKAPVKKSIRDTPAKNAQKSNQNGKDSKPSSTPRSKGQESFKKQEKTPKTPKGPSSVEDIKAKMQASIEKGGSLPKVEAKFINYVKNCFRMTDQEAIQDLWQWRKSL

B1: Flag-ALDH9A1 (enzyme, UniProt P49189-3 1-518)
chain: MFLRAGLAALSPLLRSLRPSPVAAMSTGTFVVSQPLNYRGGARVEPADASGTEKAFEPATGRVIATFTCSGEKEVNLAVQNAKAAFKIWSQKSGMERCRILLEAARIIREREDEIATMECINNGKSIFEARLDIDISWQCLEYYAGLAASMAGEHIQLPGGSFGYTRREPLGVCVGIGAWNYPFQIASWKSAPALACGNAMVFKPSPFTPVSALLLAEIYSEAGVPPGLFNVVQGGAATGQFLCQHPDVAKVSFTGSVPTGMKIMEMSAKGIKPVTLELGGKSPLIIFSDCDMNNAVKGALMANFLTQGQVCCNGTRVFVQKEILDKFTEEVVKQTQRIKIGDPLLEDTRMGPLINRPHLERVLGFVKVAKEQGAKVLCGGDIYVPEDPKLKDGYYMRPCVLTNCRDDMTCVKEEIFGPVMSILSFDTEAEVLERANDTTFGLAAGVFTRDIQRAHRVVAELQAGTCFINNYNVSPVELPFGGYKKSGFGRENGRVTIEYYSQLKTVCVEMGDVESAF
binding: binds

Reference: paper PMC11263707
